Reference: publication PMC12670160, “A drug-repurposing screen of FDA- and EMA-approved drugs identifies two NF-κB inhibitors active against eumycetoma” (Journal of Antimicrobial Chemotherapy, 2025)
Where a name gives a salt, the structure may show the parent alone. Out of some 5,300 compounds screened, about 130 (2.5%) showed an effect of 50% or more. The list shows a part of the results. Bridge positions count the residues as written; N and C are the ends. Square brackets hold non-standard residues; d marks the D form. Peptide text beside a SMILES is read from it. ξ: configuration not given here. ξThr(3R) = C[C@@H](O)C(N)C(=O)O; Orn = NCCC[C@H](N)C(=O)O; Mpa = O=C(O)CCS

system: M. mycetomatis strain mm55; conditions: primary screen, metabolic activity vs growth control; 96 h, 2 µM; inhibitor

Row | Compound | % viability
1 | CC1(C)CCC(C)(C)c2cc(C#Cc3ccc(C(=O)O)cc3)ccc21 [ONC0001455, ec23] | 116.5%
2 | O=C1COc2c(CCNCCN(C(=O)CCNCCc3ccc(Cl)c(Cl)c3)C3CCCCC3)ccc(O)c2N1 [ONC0000934, az505 ditrifluoroacetate] | 90.39%
3 | O=C(/C=C/c1cccnc1)c1ccncc1 [ONC0001196, 3po] | 95.93%
4 | O=C(CN1CCNCC1)NC1CCCCC1 [ONC0003703, esaprazole] | 104.4%
5 | COC1CCN(C(=O)c2cc(Cc3n[nH]c(=O)c4ccccc34)ccc2F)CC1 [ONC0005270, azd2461] | 114.9%
6 | c1cncc(CN2CCC(n3ncc4c(N5CCOCC5)nc(-c5ccc6[nH]ccc6c5)nc43)CC2)c1 [ONC0005057, way600] | 76.67%
7 | CC(=O)N[C@@H](C=O)[C@@H](O)[C@H](O)[C@H](O)CO [ONC0003499, nacetyldglucosamine] | 64.58%
8 | Clc1cccc(Cl)c1CSc1nnc(-c2cnccn2)s1 [ONC0003064, yoda1] | 80.91%
9 | Cc1[nH]c2ccccc2c1CCNCc1ccc(/C=C/C(=O)NO)cc1 [ONC0001846, panobinostat] | 73.7%
10 | Cc1cc(C)c(S(=O)(=O)n2cc(C)cc2C)c(C)c1 [ONC0002489, hjc0350] | 63.72%
11 | Nc1ncnc2c1ncn2C1CCCO1 (centres unmarked) [ONC0001543, sq22536] | 113.4%
12 | O=S1(=O)c2cccc3cccc(c23)N1CCCN1CCN(c2ccc(F)cc2)CC1 [ONC0002655, fananserin] | 69.9%
13 | OC[C@H]1O[C@H](O[C@H]2[C@H](O)[C@@H](O)[C@H](O)O[C@@H]2CO)[C@H](O)[C@@H](O)[C@@H]1O [ONC0000327, dmaltose] | 54.64%
14 | O=c1[nH]c(=O)c2ccccc2o1 [ONC0003927, carsalam] | 73.55%
15 | Nc1ccc(S(=O)(=O)Nc2ccccn2)cc1 [ONC0000610, sulfapyridine] | 108.7%
16 | CCN1CCC(n2cc(CNc3cc(Cl)c4ncc(C#N)c(Nc5ccc(F)c(Cl)c5)c4c3)nn2)CC1 [ONC0002075, cot inhibitor2] | 82.04%
17 | O=C(O)[C@H]1O[C@@H](Oc2cc3oc(-c4ccccc4)cc(=O)c3c(O)c2O)[C@H](O)[C@@H](O)[C@@H]1O [ONC0004947, baicalin] | 61.05%
18 | Cn1cc(-c2ccncc2)c(-c2ccc(OCc3ccc4ccccc4n3)cc2)n1 [ONC0005056, pf2545920] | 63.74%
19 | C[C@H](Nc1ncnc2[nH]cnc12)c1cc2ccc(F)cc2nc1-c1ccccn1 [ONC0001000, amg319] | 84.25%
20 | CN(C)CCCN1c2ccccc2Sc2ccc(Cl)cc21 [ONC0000296, chlorpromazine hydrochloride] | 104.4%
21 | COc1ccccc1N1CCN(CCCCN2C(=O)CCC2=O)CC1 [ONC0002629, mm77] | 66.25%

Row | Compound | % viability
22 | CCCCCCCCCCCCCCCCOP(=O)(O)OCC[N+](C)(C)C [ONC0004041, miltefosine 5mm] | 72.45%
23 | CC(=O)[C@]1(N)Cc2c(O)c3c(c(O)c2[C@@H](O[C@H]2C[C@H](O)[C@H](O)CO2)C1)C(=O)c1ccccc1C3=O [ONC0003637, amrubicin] | 78.63%
24 | NCCOB(c1ccccc1)c1ccccc1 [ONC0000031, 2apb] | 77.67%
25 | O=C(O)COc1ccc(/C=C2\SC(=O)NC2=O)cc1 [ONC0002539, tcs3035] | 56%
26 | O=C(CCCN1CCC2(CC1)C(=O)N(Cc1cccc(F)c1)CN2c1ccccc1)c1ccc(F)cc1 [ONC0004290, 3fluorobenzylspiperone] | 71.07%
27 | O=c1ccc2ccccc2o1 [ONC0000316, coumarin] | 70.83%
28 | Cc1nc(-c2cccnc2)sc1C(=O)Nc1ccccc1-c1cn2c(CN3CCOCC3)csc2n1 [ONC0004386, srt2104 gsk2245840] | 108.4%
29 | CCOc1ccc(C[C@H]2NC(=O)CCSSC[C@@H](C(=O)N3CCC[C@H]3C(=O)N[C@@H](CCCN)C(=O)NCC(N)=O)NC(=O)[C@H](CC(N)=O)NC(=O)[C@H]([C@@H](C)O)NC(=O)[C@H]([C@@H](C)CC)NC2=O)cc1 [ONC0002189, atosiban] ([Mpa][dY](Et)I[ξThr(3R)]NCP[Orn]G-NH2; disulfide 1-6) | 60.69%
30 | O=C(O)c1c(Sc2ccccc2)c2cc(Cl)ccc2n1Cc1ccc(Cl)cc1 [ONC0000171, ntzdpa] | 101.5%
31 | COc1cc([C@@H]2c3cc4c(cc3[C@@H](O[C@@H]3O[C@@H]5CO[C@@H](c6cccs6)O[C@H]5[C@H](O)[C@H]3O)[C@H]3COC(=O)[C@H]23)OCO4)cc(OC)c1O [ONC0002385, teniposide] | 126.4%
32 | Cc1ncc(C[n+]2csc(CCO[P@](=O)(O)OP(=O)(O)O)c2C)c(N)n1 [ONC0002796, thiamine pyrophosphate chloride] | 94.34%
33 | O=C1NC(=O)/C(=C/c2ccc3c(c2)OC(F)(F)O3)S1 [ONC0005203, as604850] | 141.3%
34 | CCCCOc1cc(CC2CNC(=O)N2)ccc1OC (centres unmarked) [ONC0001719, ro201724] | 81.8%
35 | [H]/N=C(/N)NS(=O)(=O)c1ccc(N)cc1 [ONC0000656, sulfaguanidine] | 136.5%
36 | CCN(CC)C(=O)c1ccc(C2=CC3(CCNCC3)Oc3cccc(O)c32)cc1 [ONC0004697, adl5859 hcl] | 106.5%
37 | OCc1ccccc1O [ONC0003422, salicyl alcohol] | 114.5%
38 | CCN(CC)CCCC(C)Nc1nc(C)cc(Nc2ccc3nc(C)cc(N)c3c2)n1 (centres unmarked) [ONC0000008, nsc23766] | 97.4%
39 | CNC(=O)[C@H]1O[C@@H](n2cnc3c(NCc4cccc(I)c4)nc(Cl)nc32)[C@H](O)[C@@H]1O [ONC0000076, cf102] | 94.23%
40 | COc1c(N2CCNC(C)C2)c(F)cc2c(=O)c(C(=O)O)cn(C3CC3)c12 (centres unmarked) [ONC0003878, gatifloxacin] | 69%
41 | CCOC(=O)[C@@](C)(N)Cc1ccc(O)c(O)c1 [ONC0002917, methyldopate] | 83.67%
42 | O=C(c1ccccc1)c1ccc2n1CCC2C(=O)O (centres unmarked) [ONC0002333, ketorolac tromethamine] | 86.49%

Single values from above:
% viability, OC[C@H]1O[C@H](O[C@H]2[C@H](O)[C@@H](O)[C@H](O)O[C@@H]2CO)[C@H](O)[C@@H](O)[C@@H]1O [ONC0000327, dmaltose] is entered as 54.64%
% viability, CCOC(=O)[C@@](C)(N)Cc1ccc(O)c(O)c1 [ONC0002917, methyldopate] is entered as 83.67%
% viability, Cn1cc(-c2ccncc2)c(-c2ccc(OCc3ccc4ccccc4n3)cc2)n1 [ONC0005056, pf2545920] is entered as 63.74%
% viability, O=C(CN1CCNCC1)NC1CCCCC1 [ONC0003703, esaprazole] is entered as 104.4%
% viability, COc1ccccc1N1CCN(CCCCN2C(=O)CCC2=O)CC1 [ONC0002629, mm77] is entered as 66.25%
% viability, O=C(O)c1c(Sc2ccccc2)c2cc(Cl)ccc2n1Cc1ccc(Cl)cc1 [ONC0000171, ntzdpa] is entered as 101.5%

(cont.)

Row | Compound | % viability
43 | O=C(O)c1ccccc1NC(=O)N1CCC(c2ccccc2C(F)(F)F)CC1 [ONC0001714, a1120] | 62.04%
44 | COCCNC(=O)Cn1cnc([N+](=O)[O-])n1 [ONC0002969, sanazole] | 82.13%
45 | C#CCC(Cc1cnc2nc(N)nc(N)c2n1)c1ccc(C(=O)N[C@@H](CCC(=O)O)C(=O)O)cc1 (some centres unmarked) [ONC0004878, pralatrexatefolotyn] | 130.7%
46 | CC(C)(C)NCC(O)COc1cccc2[nH]c(=O)[nH]c12 (centres unmarked) [ONC0000086, cgp12177] | 91%
47 | O=C(C[S+]([O-])Cc1ccco1)NC/C=C\COc1cc(CN2CCCCC2)ccn1 (centres unmarked) [ONC0004911, lafutidine] | 110.6%
48 | CCOC(=O)NNc1ccc(N(CC)CC(C)O)nn1 (centres unmarked) [ONC0001944, cadralazine] | 72.29%
49 | CN(C)CC(c1ccc(O)cc1)C1(O)CCCCC1 (centres unmarked) [ONC0003892, desvenlafaxine succinate] | 60.72%
50 | C[n+]1cccc(C(=O)O)c1 [ONC0003448, trigonellinehcl] | 47.48%
51 | O=C(NOCC(O)CO)c1cc(Br)c(F)c(F)c1Nc1ccc(I)cc1F (centres unmarked) [ONC0004603, pd318088] | 57.16%
52 | NC(=O)CCCCn1ccc(/N=C(\N)NCC(F)(F)F)n1 [ONC0000845, ici162846] | 70.25%
53 | CN(CC[C@@H](Oc1ccc(-c2ccccc2)cc1)c1ccc(F)cc1)CC(=O)O [ONC0001910, alx5407] | 63.49%
54 | CCCCCCCCCCCCCCCCCC[S+](CCC)c1ccccc1C(=O)OCC (centres unmarked) [ONC0005529, ac1ndss5] | 106.8%
55 | O=[N+]([O-])NC1=NCCN1Cc1ccc(Cl)nc1 [ONC0002757, imidacloprid] | 125.1%
56 | Cc1ccc2nc(N)[nH]c(=O)c2c1Sc1ccncc1 [ONC0000279, nolatrexed dihydrochloride] | 63.86%
57 | C=C[C@]1(C)CC[C@@H](C(=C)C)C[C@H]1C(=C)C [ONC0003857, betaelemene] | 65.57%
58 | O=C(Nc1ccccc1Br)N[C@@H]1CCN(c2ccc(C(F)(F)F)cn2)C1 [ONC0004753, sb705498] | 92.91%
59 | COC(=O)[C@@]12OC[C@]34[C@H]([C@@H](O)[C@@H]1O)[C@@]1(C)CC(=O)C(O)=C(C)[C@@H]1C[C@H]3OC(=O)[C@H](OC(=O)/C=C(\C)C(C)C)[C@@H]24 [ONC0001105, bruceantin] | 72.53%
60 | COc1ccc(S(=O)(=O)N(CCO)c2ccccc2CN(C)C/C=C/c2ccc(Cl)cc2)cc1 [ONC0005589, kn93] | 94.36%
61 | COC(=O)N1CC[C@@H]2[C@H]1CCC[C@@]2(O)C#Cc1cccc(C)c1 [ONC0002206, mavoglurant] | 86.89%
62 | C=CCN1C[C@H](C)N([C@H](c2ccc(C(=O)N(CC)CC)cc2)c2cccc(O)c2)C[C@H]1C [ONC0001565, bw373u86] | 111%
